Data on one molecule can be found in patent publication US10221139B2, “Inhibitors of histone demethylases” (Gilead Sciences, Inc., priority 2012, dated 2019).

Protein sequences, listed by entry. Tags and fused reporters are not part of them. Residues count along the entry.
UniProt Q9UGL1, 1-752 limits assumed: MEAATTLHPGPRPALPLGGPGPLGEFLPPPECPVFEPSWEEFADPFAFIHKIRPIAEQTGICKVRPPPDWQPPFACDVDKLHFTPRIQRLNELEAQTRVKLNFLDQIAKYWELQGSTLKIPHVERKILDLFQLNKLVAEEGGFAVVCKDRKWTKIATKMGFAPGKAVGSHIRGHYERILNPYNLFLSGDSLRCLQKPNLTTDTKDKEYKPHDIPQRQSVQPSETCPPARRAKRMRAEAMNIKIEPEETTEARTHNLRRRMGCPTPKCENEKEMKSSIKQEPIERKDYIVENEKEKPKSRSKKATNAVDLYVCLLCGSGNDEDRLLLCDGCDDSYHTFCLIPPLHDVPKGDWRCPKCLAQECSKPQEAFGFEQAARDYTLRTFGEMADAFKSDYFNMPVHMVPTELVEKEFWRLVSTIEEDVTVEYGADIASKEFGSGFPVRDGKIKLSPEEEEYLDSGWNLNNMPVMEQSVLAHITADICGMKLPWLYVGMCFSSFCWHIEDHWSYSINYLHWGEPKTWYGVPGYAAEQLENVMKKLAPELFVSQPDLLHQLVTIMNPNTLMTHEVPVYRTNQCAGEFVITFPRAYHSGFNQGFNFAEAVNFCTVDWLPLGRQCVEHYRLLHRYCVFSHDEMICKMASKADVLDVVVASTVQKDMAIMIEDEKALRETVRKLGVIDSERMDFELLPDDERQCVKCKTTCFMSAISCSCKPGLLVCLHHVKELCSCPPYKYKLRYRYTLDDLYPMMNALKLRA

Each structure is given as a SMILES string. The match of structure and compound is tentative.

The target in this assay is PLU1 (KDM5B) (Homo sapiens, UniProt Q9UGL1). Kind of assay: Immunofluorescence assay in U2OS cells transfected with pCMVHA PLU1 (H3K4me2 mark). Format: cell-based. Particulars: read-out: PLU1 (KDM5B) IC50, 20 hours.

As a reminder, the IC50 is the midpoint of a concentration-inhibition curve. For the molecule `COc1ccccc1CN1CCC(NC(=O)CNCc2cc(C(=O)O)ccn2)CC1`, the IC50 lay in the range of 1 to 50 µM.
